In patent US20250313544A1, “INHIBITORS OF GLUTATHIONE S-TRANSFERASE ZETA 1 (GSTZ1) AND METHODS OF USE” (H. LEE MOFFITT CANCER CENTER AND RESEARCH INSTITUTE, INC., priority 2022, published 2025):
For at least one compound, name, drawing or mass did not settle the structure.

Experiments:
H2286 cells = assay: Response of H2286 cells to targeted drug; assay type: cell-based, human; settings: H2286, DDR2 mutant
[1] = test system: HCC366 cells harboring mutated DDR2; assay: Cell viability assay (CellTiter-Glo) in HCC366 cells; assay type: cell-based, human; settings: HCC366, DDR2 L239R
Protocol: Cells were seeded in Corning 384-well black walled/clear bottom microplates with a density of 1,000 cells/well and treated with indicated drugs and concentrations following cell attachment for 24 h. After 72 h or 96 h, as indicated, cell viability was evaluated with CellTiter-Glo (Promega, Madison, WI) according to manufacturer's recommendations. An M5 Spectramax plate reader (Molecular devices) was used to read the plates with 500 ms integration. Data was processed and analyzed using Excel and GraphPad Prism 9.0.

Cc1nc(Nc2ncc(C(=O)Nc3c(C)cccc3Cl)s2)cc(N2CCN(CCO)CC2)n1 [dasatinib, reference compound]
cell response to targeted drug (H2286 cells): only partially respond
cell response to targeted drug [1]: only partially respond
